# In the supplement of paper PMC8728848:
# Some of the results follow.
# Assays:
# Test in all cases: glycan array binding signal (z-score within array); higher = stronger binding
# Details in all cases: glycan notation: IUPAC condensed, linker removed
# [1] = molecular target: GlcNAc(b1-2)[GlcNAc(b1-4)]Man(a1-3)[GlcNAc(b1-4)][GlcNAc(b1-2)[GlcNAc(b1-6)]Man(a1-6)]Man(b1-4)GlcNAc(b1-4)[Fuc(a1-6)]GlcNAc
# Outline: (§1)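 From the Consortium for Functional Glycomics database, 3228 arrays were curated, keeping only those whose protein sequence was available. Binding is given as a within-array Z-score averaged across arrays sharing a protein sequence and across linkers. Negative Z-scores can be read as non-binding.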
# [2] = molecular target: GlcNAc(b1-2)[GlcNAc(b1-6)]Man(a1-6)[GlcNAc(b1-2)Man(a1-3)]Man(b1-4)GlcNAc(b1-4)[Fuc(a1-6)]GlcNAc
# Outline: as §1
# [3] = molecular target: GlcNAc(b1-2)[GlcNAc(b1-6)]Man(a1-6)[GlcNAc(b1-4)][GlcNAc(b1-2)Man(a1-3)]Man(b1-4)GlcNAc(b1-4)GlcNAc
# Outline: as §1
# [4] = molecular target: GlcNAc(b1-3)Fuc
# Outline: as §1
# [5] = molecular target: GlcNAc(b1-3)Gal
# Outline: as §1
# [6] = molecular target: GlcNAc(b1-3)Gal(b1-4)Glc
# Outline: as §1
# [7] = molecular target: GlcNAc(b1-3)Gal(b1-4)GlcNAc
# Outline: as §1
# [8] = molecular target: GlcNAc(b1-3)Gal(b1-4)GlcNAc(b1-2)Man(a1-3)[GlcNAc(b1-3)Gal(b1-4)GlcNAc(b1-2)Man(a1-6)]Man(b1-4)GlcNAc(b1-4)GlcNAc
# Outline: as §1
# [9] = molecular target: GlcNAc(b1-3)Gal(b1-4)GlcNAc(b1-2)Man(a1-3)[GlcNAc(b1-3)Gal(b1-4)GlcNAc(b1-2)Man(a1-6)]Man(b1-4)GlcNAc(b1-4)[Fuc(a1-6)]GlcNAc
# Outline: as §1
# [10] = molecular target: GlcNAc(b1-3)Gal(b1-4)GlcNAc(b1-2)[GlcNAc(b1-3)Gal(b1-4)GlcNAc(b1-6)]Man(a1-6)[GlcNAc(b1-3)Gal(b1-4)GlcNAc(b1-2)Man(a1-3)]Man(b1-4)GlcNAc(b1-4)GlcNAc
# Outline: as §1
# [11] = molecular target: GlcNAc(b1-3)Gal(b1-4)GlcNAc(b1-3)Gal(b1-4)GlcNAc
# Outline: as §1
# [12] = molecular target: GlcNAc(b1-3)Gal(b1-4)GlcNAc(b1-3)Gal(b1-4)GlcNAc(b1-2)Man(a1-3)[GlcNAc(b1-3)Gal(b1-4)GlcNAc(b1-3)Gal(b1-4)GlcNAc(b1-2)Man(a1-6)]Man(b1-4)GlcNAc(b1-4)GlcNAc
# Outline: as §1
# [13] = molecular target: GlcNAc(b1-3)Gal(b1-4)GlcNAc(b1-3)Gal(b1-4)GlcNAc(b1-2)Man(a1-3)[GlcNAc(b1-3)Gal(b1-4)GlcNAc(b1-3)Gal(b1-4)GlcNAc(b1-2)Man(a1-6)]Man(b1-4)GlcNAc(b1-4)[Fuc(a1-6)]GlcNAc
# Outline: as §1
# [14] = molecular target: GlcNAc(b1-3)Gal(b1-4)GlcNAc(b1-3)Gal(b1-4)GlcNAc(b1-2)[GlcNAc(b1-3)Gal(b1-4)GlcNAc(b1-3)Gal(b1-4)GlcNAc(b1-6)]Man(a1-6)[GlcNAc(b1-3)Gal(b1-4)GlcNAc(b1-3)Gal(b1-4)GlcNAc(b1-2)Man(a1-3)]Man(b1-4)GlcNAc(b1-4)[Fuc(a1-6)]GlcNAc
# Outline: as §1
# [15] = molecular target: GlcNAc(b1-3)Gal(b1-4)GlcNAc(b1-3)Gal(b1-4)GlcNAc(b1-3)Gal(b1-4)GlcNAc(b1-2)Man(a1-3)[GlcNAc(b1-3)Gal(b1-4)GlcNAc(b1-3)Gal(b1-4)GlcNAc(b1-3)Gal(b1-4)GlcNAc(b1-2)Man(a1-6)]Man(b1-4)GlcNAc(b1-4)[Fuc(a1-6)]GlcNAc
# Outline: as §1
# [16] = molecular target: GlcNAc(b1-3)Gal(b1-4)GlcNAc(b1-3)Gal(b1-4)GlcNAc(b1-3)Gal(b1-4)GlcNAc(b1-3)Gal(b1-4)GlcNAc(b1-2)Man(a1-3)[GlcNAc(b1-3)Gal(b1-4)GlcNAc(b1-3)Gal(b1-4)GlcNAc(b1-3)Gal(b1-4)GlcNAc(b1-3)Gal(b1-4)GlcNAc(b1-2)Man(a1-6)]Man(b1-4)GlcNAc(b1-4)GlcNAc
# Outline: as §1
# [17] = molecular target: GlcNAc(b1-3)Gal(b1-4)GlcNAc(b1-3)Gal(b1-4)GlcNAc(b1-3)Gal(b1-4)GlcNAc(b1-3)Gal(b1-4)GlcNAc(b1-2)Man(a1-3)[GlcNAc(b1-3)Gal(b1-4)GlcNAc(b1-3)Gal(b1-4)GlcNAc(b1-3)Gal(b1-4)GlcNAc(b1-3)Gal(b1-4)GlcNAc(b1-2)Man(a1-6)]Man(b1-4)GlcNAc(b1-4)[Fuc(a1-6)]GlcNAc
# Outline: as §1
# [18] = molecular target: GlcNAc(b1-3)Gal(b1-4)GlcNAc(b1-3)Gal(b1-4)GlcNAc(b1-3)Gal(b1-4)GlcNAc(b1-3)Gal(b1-4)GlcNAc(b1-2)[GlcNAc(b1-3)Gal(b1-4)GlcNAc(b1-3)Gal(b1-4)GlcNAc(b1-3)Gal(b1-4)GlcNAc(b1-3)Gal(b1-4)GlcNAc(b1-6)]Man(a1-6)[GlcNAc(b1-3)Gal(b1-4)GlcNAc(b1-3)Gal(b1-4)GlcNAc(b1-3)Gal(b1-4)GlcNAc(b1-3)Gal(b1-4)GlcNAc(b1-2)Man(a1-3)]Man(b1-4)GlcNAc(b1-4)[Fuc(a1-6)]GlcNAc
# Outline: as §1
# [19] = molecular target: GlcNAc(b1-3)Gal(b1-4)GlcNAc(b1-3)Gal(b1-4)GlcNAc(b1-3)GalNAc
# Outline: as §1
# [20] = molecular target: GlcNAc(b1-3)Gal(b1-4)GlcNAc(b1-3)GalNAc
# Outline: as §1
# [21] = molecular target: GlcNAc(b1-3)Gal(b1-4)GlcNAc(b1-3)[GlcNAc(b1-3)Gal(b1-4)GlcNAc(b1-3)]GalNAc
# Outline: as §1
# [22] = molecular target: GlcNAc(b1-3)Gal(b1-4)GlcNAc(b1-6)[Gal(b1-3)]GalNAc
# Outline: as §1
# [23] = molecular target: GlcNAc(b1-3)Gal(b1-4)GlcNAc(b1-6)[GlcNAc(b1-3)Gal(b1-3)]GalNAc
# Outline: as §1
# [24] = molecular target: GlcNAc(b1-3)Gal(b1-4)GlcNAc(b1-6)[GlcNAc(b1-3)]Gal(b1-4)GlcNAc
# Outline: as §1
# [25] = molecular target: GlcNAc(b1-3)GalNAc
# Outline: as §1
# [26] = molecular target: GlcNAc(b1-3)[GlcNAc(b1-4)][GlcNAc(b1-6)]GlcNAc
# Outline: as §1
# [27] = molecular target: GlcNAc(b1-3)[GlcNAc(b1-6)]Gal(b1-4)GlcNAc
# Outline: as §1
# [28] = molecular target: GlcNAc(b1-3)[GlcNAc(b1-6)]GalNAc
# Outline: as §1
# [29] = molecular target: GlcNAc(b1-4)Gal(b1-4)GlcNAc
# Outline: as §1
# [30] = molecular target: GlcNAc(b1-4)GlcNAc(b1-4)GlcNAc
# Outline: as §1
# [31] = molecular target: GlcNAc(b1-4)GlcNAc(b1-4)GlcNAc(b1-4)GlcNAc(b1-4)GlcNAc
# Outline: as §1
# [32] = molecular target: GlcNAc(b1-4)GlcNAc(b1-4)GlcNAc(b1-4)GlcNAc(b1-4)GlcNAc(b1-4)GlcNAc
# Outline: as §1
# [33] = molecular target: GlcNAc(b1-4)[GlcNAc(b1-6)]GalNAc
# Outline: as §1
# [34] = molecular target: GlcNAc(b1-6)Gal(b1-4)GlcNAc
# Outline: as §1
# [35] = molecular target: GlcNAc(b1-6)GalNAc
# Outline: as §1
# [36] = molecular target: GlcNAc6S(b1-3)Gal(b1-4)GlcNAc
# Outline: as §1
# [37] = molecular target: Kdn(a2-3)Gal(b1-3)GalNAc
# Outline: as §1
# [38] = molecular target: Kdn(a2-3)Gal(b1-3)GlcNAc
# Outline: as §1
binder,measurement,setting,value
PX14351B-bth-512-36-512 (Bacteroides thetaiotaomicron) (protein) ASETQQWKTLEDTRSALMGVYGLTRAALADNNTHWICGDLRKGDFTVYKRSDLQAVSDNELNKPYDLLKKVSNWRRFYAVINAASVFMEKAPRTVELDRSYSEQNLKYDIAQVRALRAFAYFYMVRIWGDVPLVTYSYDNGTFPSMPRTDAQTVLSYAKAELLTAIEDLPYQYGTQTNLYYGSYGAQWQGKLFNKLSAYSVLAHICAWQGNYAEAETYSAFIIDHASEINAKYTSIADLTSETGLFYSNASVKGSRILGFNFAHNDNEATQSGHLEQLTLAYPLVQKSYPEIYISKDSLFSIFTNFDDLRFGIIDTIKYSSYYVQNLNEETPVFSKIKIIQDGSAKDNDFGVFGSSIVFTRLEDITLLRAEALCALNRSTEAVSYLNMIRTNRGLREVSFKKDFGNNRESLIAEIFEERRRELMGEGWRWYDLVRRQKLMKDNEAFLRLISSGGIYWPVSEDIITANSQIEQNEFWK,glycan array binding signal (z-score),[1],-0.32
same,glycan array binding signal (z-score),[2],0.045
same,glycan array binding signal (z-score),[3],-0.242
same,glycan array binding signal (z-score),[4],-0.312
same,glycan array binding signal (z-score),[5],-0.293
same,glycan array binding signal (z-score),[6],-0.16
same,glycan array binding signal (z-score),[7],-0.298
same,glycan array binding signal (z-score),[8],-0.058
same,glycan array binding signal (z-score),[9],-0.035
same,glycan array binding signal (z-score),[10],-0.09
same,glycan array binding signal (z-score),[11],-0.107
same,glycan array binding signal (z-score),[12],0.645
same,glycan array binding signal (z-score),[13],-0.034
same,glycan array binding signal (z-score),[14],-0.167
same,glycan array binding signal (z-score),[15],-0.018
same,glycan array binding signal (z-score),[16],0.559
same,glycan array binding signal (z-score),[17],-0.07
same,glycan array binding signal (z-score),[18],-0.136
same,glycan array binding signal (z-score),[19],-0.364
same,glycan array binding signal (z-score),[20],-0.285
same,glycan array binding signal (z-score),[21],-0.416
same,glycan array binding signal (z-score),[22],-0.321
same,glycan array binding signal (z-score),[23],-0.304
same,glycan array binding signal (z-score),[24],-0.283
same,glycan array binding signal (z-score),[25],-0.069
same,glycan array binding signal (z-score),[26],0.283
same,glycan array binding signal (z-score),[27],-0.14
same,glycan array binding signal (z-score),[28],0.052
same,glycan array binding signal (z-score),[29],-0.133
same,glycan array binding signal (z-score),[30],-0.369
same,glycan array binding signal (z-score),[31],-0.219
same,glycan array binding signal (z-score),[32],-0.219
same,glycan array binding signal (z-score),[33],-0.124
same,glycan array binding signal (z-score),[34],-0.262
same,glycan array binding signal (z-score),[35],-0.247
same,glycan array binding signal (z-score),[36],-0.329
same,glycan array binding signal (z-score),[37],0.222
same,glycan array binding signal (z-score),[38],-0.272
